Results published in PubChem BioAssay AID493014 (National Center for Advancing Translational Sciences (NCATS), 2011).
The other results are listed elsewhere or left out. These are further read-outs of the screen, such as a control signal, another cell line or another target. No call is given for them. Most of these compounds were active or inconclusive in the main read-out, so they are no random draw. Potencies come from curve fits of mixed quality, noted in brackets.

Test: qHTS Assay to Find Inhibitors of Chronic Active B-Cell Receptor Signaling
Conditions: ABC-DLBCL IkBa-CBG/CBR reporter, luminescence ratio (green luciferase fused to IkBa over red control in TMD8 lymphoma cells), 4 h
In short: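 Compounds up to 46 uM were incubated four hours with TMD8 cells whose green CBG68 luciferase is fused to IkappaBalpha; red CBR luminescence normalised the signal, and concentration-effect curves were fitted to fusion, red and ratio data.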

[1] = measured here: CBR red luminescence, cell number
[2] = measured here: IkBa-CBG green luminescence

Row | SMILES | AC50 [1] | AC50 [2]
1 | Cc1cc(C)cc(Nc2ccc(C(=O)O)cc2N)c1 | 0.517 µM [falling, full curve] | –
2 | CC(C)(C)C(=O)Nc1c(Br)c(C2CC2)nn1-c1ccccc1 | 2.82 µM [rising, partial curve, poor fit] | –
3 | CCC(C)(C)C(=O)Nc1ncc(S(=O)(=O)c2ccc([N+](=O)[O-])cc2)s1 | 12.6 µM [falling, single point] | –
4 | CCc1ccc(CN(C)C(=O)c2cc(COc3cc(C)c(Cl)c(C)c3)on2)nc1 | 35.5 µM [falling, single point] | –
5 | CCN(C(=O)c1cnc(N2CCN(c3ncccn3)CC2)c2ccccc12)c1cccc(Cl)c1 | 10 µM [falling, partial curve] | –
6 | CC(C)Oc1ccccc1/C=N/NC(=O)C1CCCC1 | 1.41 µM [rising, full curve, poor fit] | –
7 | CCOCC(=O)Nc1ccc(S(=O)(=O)N2CCC(c3nc4ccccc4[nH]3)CC2)cc1 | 9.2 µM [rising, partial curve, poor fit] | –
8 | Oc1oc(-c2ccco2)nc1C=Nc1cccc(Cl)c1 | 10 µM [falling, partial curve] | –
9 | CCOC(=O)c1cnn(CC2CCCCC2)c1N | 35.5 µM [rising, partial curve, poor fit] | –
10 | O=c1c(N2CCN(c3cccc(C(F)(F)F)c3)CC2)csc2ccccc12 | 35.5 µM [falling, single point] | –
11 | Cc1noc(C)c1COc1ccc(C(=O)NCc2ccccn2)cc1 | 0.082 µM [falling, full curve, poor fit] | –
12 | CSC1=NNC(c2ccc(C(C)(C)C)cc2)=NN1 | 1 µM [rising, full curve] | –
13 | CCCCCCCOC(=O)c1ccc(OC(=O)c2cccnc2)cc1 | 0.366 µM [rising, full curve] | –
14 | O=C(c1ccccc1-c1nc(-c2ccc(F)cc2)no1)N1CCCC1 | 22.4 µM [rising, partial curve] | –
15 | COc1ccc(O)c(/C=N/NC(=O)CCC(=O)Nc2ccc(F)cc2)c1 | 7.94 µM [falling, partial curve] | –
16 | CCC1CCC(c2nnc(-c3ccc([N+](=O)[O-])cc3)o2)CC1 (configuration not stated) | 16.4 µM [rising, single point] | –
17 | C=CCC[C@H](Cc1ccc(F)cc1)C(=O)OC[C@H](Cc1c[nH]c2ccccc12)NC(=O)[C@H](CC=C)CC(=O)N(CCO)Cc1ccccc1 | 20.6 µM [falling, partial curve, poor fit] | –
18 | CCOC(=O)C1(Cc2ccc(OC)cc2)CCN(C(=O)C2=CCCC2)CC1 | 35.5 µM [rising, single point] | –
19 | COc1ccc(Cl)cc1NC(=O)c1cc(-c2ccc(C)cc2O)n[nH]1 | 15.8 µM [falling, single point] | –
20 | Cc1ccnc2nc(C(=O)Nc3ccc4c(c3)OCO4)nn12 | 0.00461 µM [falling, full curve, poor fit] | –
21 | COc1ccccc1NC(=O)C(C)OC(=O)CCNS(=O)(=O)c1ccc(C)c(C)c1 (configuration not stated) | 29.1 µM [rising, single point] | –

Row | SMILES | AC50 [1] | AC50 [2]
22 | COc1ccc(NC(=O)c2cccc(NC(=O)c3ccccc3)c2)cc1 | 15.8 µM [falling, single point] | –
23 | Cc1ccc(NNC(=O)Nc2ccc(Cl)cc2)nn1 | 11.2 µM [rising, partial curve] | –
24 | O=C(Nc1cccc(Cl)c1)N1CCN2C(=O)c3ccccc3C12c1ccccc1 (configuration not stated) | 5.01 µM [falling, partial curve] | 12.6 µM [rising, partial curve, poor fit]
25 | CCOC(=O)Cc1csc(NC(=O)c2ccc(Br)cc2)n1 | 17.8 µM [falling, single point] | –
26 | CCC(C(=O)NCCN1CCN(C)CC1)n1c(C)c2cnn(-c3ccccc3)c(=O)c2c1C (configuration not stated) | 5.01 µM [rising, partial curve, poor fit] | –
27 | O=C(N/N=C/c1ccc(O)c(O)c1)c1ccc(CSc2cccc3cccnc23)cc1 | 7.31 µM [falling, partial curve, poor fit] | –
28 | O=C(N/N=C/c1cc2c(cc1Br)OCO2)c1c[nH]c2ccccc12 | 0.112 µM [rising, full curve, poor fit] | –
29 | c1ccc2sc(NN=C3CCCC3)nc2c1 | 11.2 µM [falling, partial curve, poor fit] | –
30 | COc1ccc(N=Nc2ccc(N)nc2N)cc1 | 0.891 µM [rising, full curve, poor fit] | –
31 | O=C(Nc1ccc(Cl)cc1)OCc1cncs1 | 3.98 µM [rising, partial curve, poor fit] | –
32 | COc1ccccc1OCc1ccc(C(=O)N2CCOCC2)o1 | 6.51 µM [rising, partial curve, poor fit] | –
33 | CCSc1nnc(NC(=O)c2cccc(S(=O)(=O)N(C)c3ccc(C)cc3)c2)s1 | 8.2 µM [rising, partial curve, poor fit] | –
34 | COc1ccc(-c2coc3cc(OC4OC(CO)C(O)C(O)C4O)cc(O)c3c2=O)cc1 (configuration not stated) | 13 µM [rising, partial curve] | –
35 | FC(F)(F)c1cccc(-n2cc(-c3ccccc3)[nH]c2=S)c1 | 0.355 µM [rising, full curve, poor fit] | –
36 | C/C(=N\Nc1ncnc2sc(C)c(C)c12)c1ccccn1 | – | 15.8 µM [falling, partial curve, poor fit]
37 | Cc1noc(/C=C/N(C)C)c1S(=O)(=O)N1CCN(c2ccccc2)CC1 | 3.55 µM [rising, full curve, poor fit] | –
38 | Nc1nc(Cl)cc(N2CCC(c3cc(-c4ccc(Cl)cc4)n[nH]3)CC2)n1 | 35.5 µM [falling, single point] | –
39 | CCCOC(=O)c1ccc(NC(=O)CC(C)(C)C)cc1 | 12.6 µM [falling, partial curve] | –
40 | CCCCCC[n+]1c(-c2ccccc2)csc1Nc1ccccc1 | 18.4 µM [rising, single point] | –
41 | CCSc1nnc(-c2ccc(OC)cc2)o1 | 2.06 µM [rising, partial curve] | –

A different layout for part of the listing above:

| Row | SMILES | AC50 [1] | AC50 [2] |
| --- | --- | --- | --- |
| 34 | COc1ccc(-c2coc3cc(OC4OC(CO)C(O)C(O)C4O)cc(O)c3c2=O)cc1 (configuration not stated) | 13 µM [rising, partial curve] | – |
| 35 | FC(F)(F)c1cccc(-n2cc(-c3ccccc3)[nH]c2=S)c1 | 0.355 µM [rising, full curve, poor fit] | – |
